Assay results: patent US4026857A, “Epoxy emulsion water-based coating” (priority 1975, dated 1977)

Assay: Wet film wetting characteristics of emulsions made with different solvents
Design: key: Wetted: If the film is continuous without breaks, it is rated as "wetted"; Dewetted: If, however, the film is discontinuous with breaks in it, it is rated as "dewetted"
Details: emulsion with 50 parts of the solvent per 100 parts epoxy resin; wire wound bar application to lubricated electrolytic tinplated steel

Row | SMILES | Film Wetting Characteristic
1 | CCCCOCCO [Butyl Cellosolve] | Dewetted
2 | CCOCCO [Ethyl Cellosolve] | Dewetted
3 | CCCCCC(=O)CC [Ethyl amyl ketone] | Dewetted
4 | CCCCCCOCCOCCO [Hexyl Carbitol, diethylene glycol monohexyl ether] | Wetted
5 | CCCCCCOCCO [Hexyl Cellosolve, 2-Hexoxyethanol] | Wetted
6 | COCCO [Methyl Cellosolve] | Dewetted
7 | CCC(C)=O [Methyl ethyl ketone] | Dewetted
